10 molecules from the supplement of paper PMC12823440, “Inhibitors supercharge kinase turnover through native proteolytic circuits” (Nature, 2025) can be followed below.

The other results are listed elsewhere or left out. Hit calls seldom repeat between salt and free forms of one compound.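 Kinases were expressed as nanoluciferase fusions in K562 cells and luminescence was read every 4 h between 2 and 18 h as percent of control, DMSO set to 100% and a positive control to 0%. A time point counts as decreased when the signal drops significantly (2 sigma). The hit call is the authors' own, does not follow from the count of time points alone, and its rule is not shown.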

The experiment has as its target RIPK2 (UniProt O43353). Nature of the experiment: number of time points (of 5) at which kinase-Nluc abundance scored as decreased, DMSO-normalised (count); higher = more persistent destabilization. Conditions: K562; 2-18 h.
For `COc1cc(N2CCOCC2)ccc1NC(=O)c1csc(-c2cccnc2)n1` [IRAK inhibitor 6] (10 µM), the “number of time points” value stood at 0.

For `CNc1nc(Nc2cn(C(C)(C)C#N)nc2C)ncc1C(F)(F)F` (10 µM), the “number of time points” value was determined as 0.

Regarding `COc1nn(C)cc1Nc1nccc(-c2c[nH]c3c(NC(=O)[C@@H](C)N4CCN(C)CC4)cccc23)n1` (10 µM), the “number of time points” value worked out at 0.

For `N#Cc1ccnc(Nc2cc(C3CCN(C4COC4)CC3)cc(N3CCC(F)(F)C3)n2)c1` (2.5 µM), the “number of time points” value came to 0.

As for `Cc1cccc2c3c(ccc12)C(=O)C1=C(OCC1C)C3=O` (stereo not given) [Dihydroisotanshinone I] (2.5 µM), the “number of time points” value stood at 0.

Consider `CNc1nc(Nc2ccc(C(=O)N3CCOCC3)cc2OC)ncc1Cl` (2.5 µM), for which the “number of time points” value amounted to 0.

Regarding `CCN(CC)c1ccc2cc(-c3nc4cc(C)ccc4o3)c(=O)oc2c1` (10 µM), the “number of time points” value came to 0.

`COc1ccccc1C(=O)/C=C/c1ccccc1C(=O)O` (10 µM): the “number of time points” value worked out at 0.

For the molecule `CC(=O)N1CCC(c2cc(-c3ccc(NC(=O)c4cccn(-c5ccc(F)cc5)c4=O)cc3F)c3c(N)ncnn23)CC1` (0.5 µM), the “number of time points” value stood at 0.

For `O[C@@H]1CO[C@H]2[C@@H]1OC[C@H]2Oc1nc2nc(-c3ccc(-c4ccccc4)cc3)c(Cl)cc2[nH]1` (10 µM), the “number of time points” value is 0.
